Test results published in PubChem BioAssay AID1439 (NMMLSC, 2008).
The whole screen tested about 220,000 compounds, of which about 770 (0.35%) were called active. This list was built around the results that the source calls inconclusive (neither active nor inactive); the mix of calls is not that of the screen. Cut-off read from the data, not from the text of the source: active = binding response below about 49% or above about 150%; inconclusive = no clear call, values can overlap the other calls; inactive = in between.

Sequences of proteins named here, by UniProt entry; tags and fusion partners are left off.
UniProt P09471, whole entry, looked up: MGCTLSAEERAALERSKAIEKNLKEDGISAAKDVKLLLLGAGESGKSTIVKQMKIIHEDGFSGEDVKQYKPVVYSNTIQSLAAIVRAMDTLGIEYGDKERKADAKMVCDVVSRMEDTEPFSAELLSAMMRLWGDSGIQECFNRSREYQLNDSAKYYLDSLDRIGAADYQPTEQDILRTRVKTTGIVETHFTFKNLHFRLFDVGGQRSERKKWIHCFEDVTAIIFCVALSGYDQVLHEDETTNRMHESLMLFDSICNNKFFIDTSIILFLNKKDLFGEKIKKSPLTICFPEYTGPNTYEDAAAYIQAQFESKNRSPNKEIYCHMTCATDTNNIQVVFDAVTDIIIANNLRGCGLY

The compounds below were run against Guanine nucleotide-binding protein G(o) subunit alpha (Homo sapiens) (UniProt P09471) (assay: RGS7-Galphao binding modulators, primary screen, biochemical, multiplexed bead flow cytometry (AID 1439;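 note: fluorescent Galphao held in activated GDP-AlF4 state binding bead-coupled RGS7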)). Details: at 10 µM, actives lie on both sides.
With `Cc1ccccc1NC(=O)/C(C#N)=C\c1cc(C)n(-c2ccc(C(=O)O)cc2)c1C` the binding response (% of control) was inconclusive: 112%.
`Nc1nnc(-c2cccc([N+](=O)[O-])c2)o1` was tested, and the binding response (% of control) was inconclusive: 4.86%.
In the case of `CN(c1ccccc1)S(=O)(=O)c1cccc(NC(=O)CN2CCCc3ccccc32)c1`, the binding response (% of control) is reported as inconclusive: 129%.
`Clc1ccccc1CNc1nc2ccccc2n2cnnc12` was tested, and the binding response (% of control) was inconclusive: 104%.
In the case of `Cc1ccc2c(Cl)cc(Cl)c(OCC(=O)N3CCCC3)c2n1`, the binding response (% of control) is reported as inconclusive: 81.9%.
For `OCCC1CN(Cc2ccccc2-c2ccco2)CCN1Cc1ccsc1` (stereo unspecified), the binding response (% of control) was inactive: 95.9%.
For `CCOC(=O)c1cnc(-n2nc(C)cc2C)nc1Oc1ccc(C(=O)OC)cc1`, the binding response (% of control) was inconclusive: 98.9%.
`O=C(COC(=O)c1cnccn1)c1cccc([N+](=O)[O-])c1` was tested, and the binding response (% of control) was inconclusive: 99.9%.
`O=C(c1ccc(F)cc1)C1CCN(S(=O)(=O)c2ccccc2)CC1` was tested, and the binding response (% of control) was inactive: 105%.
In the case of `CS(=O)(=O)NCCSc1cc(C(F)(F)F)nc2ccccc12`, the binding response (% of control) is reported as inconclusive: 89%.
For `O=C(COC(=O)/C=C/c1ccc2c(c1)OCO2)NC1CCS(=O)(=O)C1` (stereo unspecified), the binding response (% of control) was inconclusive: 114%.
With `O=C(N[C@H](C(=O)O)c1ccccc1)C1CCC(Cn2cnc3ccccc3c2=O)CC1` (stereo partly specified) the binding response (% of control) was inconclusive: 105%.
In the case of `CCCCC(=O)Nc1ccc(C(=O)N(CC)c2ccccc2C)cc1`, the binding response (% of control) is reported as inactive: 89.3%.
In the case of `O=C1c2cccnc2C(Nc2ccccc2Br)N1Cc1ccco1` (stereo unspecified), the binding response (% of control) is reported as inactive: 98.7%.
With `CCN1C(=O)C2(Nc3ccccc3-c3nc4ccccc4n32)c2cc(OC)ccc21` (stereo unspecified) the binding response (% of control) was inactive: 121%.
`N#Cc1c(-c2ccccc2)nc2n1CCS2` was tested, and the binding response (% of control) was inactive: 92.3%.
In the case of `O=C(COC(=O)CNC(=O)c1ccco1)NCc1ccc(F)cc1`, the binding response (% of control) is reported as inactive: 100%.
`O=C1CC(Sc2cccs2)C(=O)N1c1ccccc1` (stereo unspecified) was tested, and the binding response (% of control) was inconclusive: 149%.
`Cc1ccc(C)n1-c1nn(S(=O)(=O)c2cccc3cccnc23)c2cccc(F)c12` was tested, and the binding response (% of control) was inconclusive: 86.9%.
`O=C(NCCCCCCNC(=O)c1cncc(O)c1)c1cncc(O)c1` was tested, and the binding response (% of control) was inconclusive: 109%.
For `O=C(CN1CCN(Cc2ccc(Cl)cc2)CC1)N/N=C/c1cccs1`, the binding response (% of control) was inconclusive: 90%.
For `C/C=C\C(=O)Nc1cccc(C2=NOC3(C2)C[C@@H](C(N)=O)N(C(=O)CCCCC)C3)c1` (stereo partly specified), the binding response (% of control) was inconclusive: 138%.
In the case of `COc1nc(N)nc(NC23CC4CC(CC(C4)C2)C3)n1`, the binding response (% of control) is reported as inactive: 97.1%.
With `C=CCc1cccc2cc(C(=O)Nc3cccc(C(=O)O)c3)c(=O)oc12` the binding response (% of control) was inconclusive: 117%.
With `NC(=O)COC(=O)c1cc(Cl)cc(Cl)c1N` the binding response (% of control) was inactive: 92.5%.
For `COc1ccc(/C=N/NC(=O)c2cccnc2)cc1COc1ccc([N+](=O)[O-])c(C)c1`, the binding response (% of control) was inconclusive: 71.8%.
In the case of `COCCCn1c(=S)[nH]c2sc3c(c2c1=O)CCCS3`, the binding response (% of control) is reported as inconclusive: 75.4%.
With `Cn1c(=O)n(C)c2cc(/C=C3/SC(=O)N(CC(=O)N4CCOCC4)C3=O)ccc21` the binding response (% of control) was inactive: 95.5%.
With `COc1ccc(NC(=O)c2ccc(Oc3ncccn3)cc2)cc1` the binding response (% of control) was inconclusive: 111%.
With `CC(O)CSc1nc2c(c(=O)n(C)c(=O)n2C)n1CCCc1ccccc1` (stereo unspecified) the binding response (% of control) was inconclusive: 61.2%.
`C=C1c2ccccc2NC(=S)N1Cc1ccc2c(c1)OCO2` was tested, and the binding response (% of control) was inactive: 98.5%.
For `Cc1ccc(-c2cc(C(=O)Nc3c(C)n(C)n(-c4ccccc4)c3=O)[nH]n2)c(O)c1C`, the binding response (% of control) was inconclusive: 101%.
For `CCN(CCn1cccn1)C(=O)c1cc(COc2ccc(F)cc2Cl)on1`, the binding response (% of control) was inconclusive: 108%.
`N#C/C(=C(/O)c1ccc(Cl)c([N+](=O)[O-])c1)c1nc2ccccc2[nH]1` was tested, and the binding response (% of control) was inconclusive: 56.4%.
`CCCCn1c(=N)n(CC(=O)c2ccc(OC)cc2)c2ccccc21` was tested, and the binding response (% of control) was inconclusive: 89.1%.
For `CSC(=NC#N)N1CCN(c2ccc([N+](=O)[O-])cc2)CC1`, the binding response (% of control) was inactive: 97.8%.
In the case of `CN(c1ccccc1)S(=O)(=O)c1cccc(NC(=O)CN2CCc3ccccc3C2)c1`, the binding response (% of control) is reported as inconclusive: 99.3%.
In the case of `CC(C)(C)c1ccccc1NC(=O)c1ccc2c(c1)SC1=NS(=O)(=O)CCN12`, the binding response (% of control) is reported as inconclusive: 133%.
For `CCC/C(C)=N\Nc1nc2c(c(=O)n(C)c(=O)n2C)n1C`, the binding response (% of control) was inconclusive: 103%.
In the case of `CN1CCN(c2ccccc2NC(=O)c2ccc([N+](=O)[O-])cc2Cl)CC1`, the binding response (% of control) is reported as inconclusive: 90.1%.
In the case of `COc1ccc([N+](=O)[O-])cc1N/C(=N/S(=O)(=O)c1ccccc1)c1ccccc1`, the binding response (% of control) is reported as inactive: 99.4%.
For `CCN(CC)CCOC(=O)/C=C/c1ccccc1`, the binding response (% of control) was inconclusive: 160%.
With `CCOC(=O)c1nc(C)sc1-c1ccnn1S(=O)(=O)c1cccc(Cl)c1` the binding response (% of control) was inconclusive: 91.2%.
For `Nc1nc2c(c(=O)[nH]1)C(c1ccccc1)C1=C(N2)c2ccccc2C1=O` (stereo unspecified), the binding response (% of control) was inconclusive: 106%.
With `O=C(c1ccco1)N1CCN(c2ccc([N+](=O)[O-])c(N3CCOCC3)c2)CC1` the binding response (% of control) was active: 30.9%.
With `Cc1cccc(NC(=O)CCN2CCOCC2)c1` the binding response (% of control) was inactive: 96.9%.
In the case of `COC(=O)CN1C(=S)N(c2ccc(F)cc2)C(=O)C1CC(=O)Nc1ccccc1` (stereo unspecified), the binding response (% of control) is reported as inconclusive: 103%.
With `CNC(=O)CSc1nc2ccccc2c(=O)n1-c1cc(OC)ccc1OC` the binding response (% of control) was inconclusive: 70%.
For `C/C(N)=C(/C#N)C(=O)CSc1nc2ccccc2c(=O)n1Cc1ccc(F)cc1`, the binding response (% of control) was inconclusive: 146%.
For `CCCCC/C=N/NC(=O)c1[nH]c2ccc([N+](=O)[O-])cc2c1C`, the binding response (% of control) was inconclusive: 17%.
For `Cc1ccc(NS(=O)(=O)c2cccc([N+](=O)[O-])c2)nc1`, the binding response (% of control) was inconclusive: 118%.
`CCCN1C(=O)/C(=C/c2c(NCCCOC(C)C)nc3c(C)cccn3c2=O)SC1=S` was tested, and the binding response (% of control) was inactive: 111%.
`Cc1cc(F)ccc1NCc1cc2c(cc1[N+](=O)[O-])OCO2` was tested, and the binding response (% of control) was inactive: 87.7%.
For `CC(C)C(NC(=O)OCc1ccccc1)C(=O)N1CCOCCOCCOCC1` (stereo unspecified), the binding response (% of control) was inactive: 100%.
`CCOC(=O)c1ccccc1NC(=O)CN1CCC(n2nnc3cc(C(F)(F)F)ccc32)CC1` was tested, and the binding response (% of control) was inconclusive: 113%.
